Measured values taken from US8063106B2, “ApoE mimetic agents” (TCP Innovations Limited, priority 2005, dated 2011).
Some of these results come from one statement about several compounds together. *1 amine or outer side, *2 acyl side, *3 side chain or, on linkers, in order; H or OH if unused. Where a SMILES comes first, the peptide text is derived from it. Bridges are numbered along the chain shown (N, C = ends). Roman numbers before positions name the chains, in order. Terephthaloyl = O=C(c1ccc(C(=O)[*:2])cc1)[*:1]; Malonyl = O=C(CC(=O)[*:2])[*:1]

Tested on: macrophages generated by differentiation of the human myelomoncytic cell line THP-1
Assay: Stimulation of macrophage phagocytosis of apoptotic cells
Type: cell-based
Conditions: PMA-differentiated THP-1 macrophages; 2 hours pre-exposure at 37° C.; CellTracker Green labelled apoptotic human lymphocytes; 1 hour phagocytosis

1,4-diaminobutane-di-(Arg)4^--amide [Example 3]
stimulation of the rate of phagocytosis (fold-change compared to control cells not exposed to the apoE mimetic): at least 2 fold

NCCCCC(NC(=O)C(CCCCN)NC(=O)C(CCCCN)NC(=O)C(CCCCN)NC(=O)CC(=O)NC(CCCCN)C(=O)NC(CCCCN)C(=O)NC(CCCCN)C(=O)NC(CCCCN)C(N)=O)C(N)=O (stereo not drawn) [Example 1, N,N′-Bis-(5-amino-1-{5-amino-1-[5-amino-1-(5-amino-1-carbamoyl-pentylcarbamoyl)-pentylcarbamoyl]-pentylcarbamoyl}-pentyl)-malonamide] (I: KKKK-NH2 / II: KKKK-NH2; linker I:N-II:N via Malonyl; configuration not given here)
stimulation of the rate of phagocytosis (fold-change compared to control cells not exposed to the apoE mimetic): at least 2 fold

NCCCCC(NC(=O)C(CCCCN)NC(=O)C(CCCCN)NC(=O)C(CCCCN)NC(=O)c1ccc(C(=O)NC(CCCCN)C(=O)NC(CCCCN)C(=O)NC(CCCCN)C(=O)NC(CCCCN)C(N)=O)cc1)C(N)=O (stereo not drawn) [Example 2, N,N′-Bis-(5-amino-1-{5-amino-1-[5-amino-1-(5-amino-1-carbamoyl-pentylcarbamoyl)-pentylcarbamoyl]-pentylcarbamoyl}-pentyl)-terephthalamide] (I: KKKK-NH2 / II: KKKK-NH2; linker I:N-II:N via Terephthaloyl; configuration not given here)
stimulation of the rate of phagocytosis (fold-change compared to control cells not exposed to the apoE mimetic): at least 2 fold
